# Laboratory results from PubChem BioAssay AID624297 (National Center for Advancing Translational Sciences (NCATS), 2012).
# Hit rate of the full screen: of about 340,000 compounds, about 6,200 (1.8%) were called active. This list was built around the results that the source calls inconclusive (neither active nor inactive); the mix of calls is not that of the screen. The call rests on the fitted dose curve; in most records, active means well fitted activation curve with a large enough effect; inconclusive means small, poorly fitted or top-dose-only effect; inactive means no such curve, though single readings can be large or run the other way. Where the call is inconclusive, the potency comes from a doubtful curve fit.
# Assay: A quantitative high throughput screen for small molecules that induce DNA re-replication in SW480 colon adenocarcinoma cells. Further: nearly all actives have a fitted effect of over 55% in size. On re-replication activation: % of control where 0% means no effect.
# Conditions: Hoechst DNA content imaging, 48 h; re-replication activation: at 46.1 µM (top of the series) unless noted
# How it was run: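 250 cells/well; 23 nL cpd via pin tool; 48 hr, 37 C, 5% CO2; Hoechst 40 min; imager read of total nuclear intensity, ex 405/em 500-530 nm.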
# Potency means the concentration at half of the fitted maximal effect.
SMILES,Potency,re-replication activation
COc1ccc(C=CC(=O)c2cc(O)ccc2O)cc1,"inconclusive: 18.4 µM [activator, single point]",
CC(C)(C)c1cc(C(=O)N/N=C/c2ccc([N+](=O)[O-])s2)n[nH]1,"inconclusive: 10.3 µM [activator, partial curve]",
COc1ccc(CCNC(=O)Cn2nc([N+](=O)[O-])c(Br)c2C)cc1OC,,inactive: 1.28%
Cc1c(CCOC(=O)CC23CC4CC(CC(C4)C2)C3)sc[n+]1CC(=O)c1ccc(Br)cc1,"inconclusive: 29.1 µM [activator, partial curve, poor fit]",
CC1Cc2ccccc2N1C(=O)C1CCCN1S(=O)(=O)c1ccc(Cl)cc1 (configuration not stated),"inconclusive: 1.46 µM [activator, partial curve, poor fit]",
COc1ccc(C2=NNC(=O)CC2)cc1,,inconclusive: 124% [activator]
CN(Cc1ccccc1N1CCCC1)C(=O)c1cc2cc(Cl)ccc2o1,,inactive: -25%
CCOC(=O)c1ccc(NC(=S)Nc2ccc3[nH]c(=O)[nH]c3c2)cc1,"inconclusive: 29.1 µM [activator, single point]",
C=C(C)C1CC=C(C)/C(=N\NC(=S)Nc2ccc(C)cc2)C1 (configuration not stated),"inconclusive: 16.4 µM [activator, partial curve, poor fit]",
Cc1ccccc1/C=C/c1nc2ccccc2c(=O)n1CCc1ccccc1,,inactive: -40.9%
CCOC(=O)N/N=C\c1ccccc1OC/C=C/c1ccccc1,"inconclusive: 29.1 µM [activator, single point]",
CC(=O)C[C@@H](O)CC(=O)[C@@H]1OC(=O)[C@@H](C)C/C=C\Cc2ccccc21,"inconclusive: 16.4 µM [activator, single point]",
CCCCn1c(O)c(/C=C2\C=NN=C2c2ccccc2)sc1=S,"inconclusive: 29.1 µM [activator, partial curve, poor fit]",
CCOc1ccc2nc(NC(=O)Cc3cccs3)sc2c1,"inconclusive: 0.517 µM [activator, full curve, poor fit]",
COc1ccc(S(=O)(=O)N(C)CC(=O)NCc2ccccn2)cc1,,inactive: 1.26%
COc1cccc(-c2n[nH]c(=S)n2Cc2ccco2)c1,"inconclusive: 29.1 µM [activator, single point]",
CCc1c(C)sc(NC(=O)c2cc(C(C)C)on2)c1C#N,"inconclusive: 5.17 µM [activator, partial curve]",
Cc1ccc(NC(=S)c2ccncc2)cc1,"inconclusive: 7.31 µM [activator, partial curve, poor fit]",
Cc1sc2ncnc(N3CCC(C(=O)Nc4nnc(SCc5ccccc5F)s4)CC3)c2c1C,,inactive: 1.41%
CCOC(=O)N1CCN(CC(=O)Nc2sccc2C#N)CC1,"inconclusive: 4.61 µM [activator, full curve, poor fit]",
CCCCN(CC)Cc1c(O)ccc2c(-c3ccccc3)cc(=O)oc12,"inconclusive: 23.1 µM [activator, partial curve, poor fit]",

SMILES,Potency,re-replication activation
N#CSCC(=O)c1cccc2ccccc12,"inconclusive: 18.4 µM [activator, single point]",
Cc1ccc(S(=O)(=O)NCc2ccccc2)cc1C(=O)N1CCCCCCC1,"inconclusive: 9.2 µM [activator, partial curve]",
COc1ccc(/C=C2\COc3ccccc3C2=O)cc1OC,"inconclusive: 29.1 µM [activator, single point]",
NC(=Nc1nc(-c2ccccn2)cc2ccccc12)c1ccccn1,"inconclusive: 0.0046 µM [activator, full curve, poor fit]",
CC(=O)Nc1ccc(C=CC=Cc2cccc([N+](=O)[O-])c2)cc1,"inconclusive: 29.1 µM [activator, single point]",
CCOc1c(Nc2ccccc2O)c(=O)c1=O,,inactive: -1.95%
CCOc1ccc2[nH]cc(C(=O)NCCc3ccccc3)c(=O)c2c1,"inconclusive: 0.411 µM [activator, full curve, poor fit]",
COc1ccc(N2CCN(CCNC(=O)Nc3ccc(C)c(Cl)c3)CC2)cc1,"inconclusive: 18.4 µM [activator, partial curve, poor fit]",
OC(COc1cccc2ccccc12)CN1CCN(c2ccccn2)CC1 (configuration not stated),"inconclusive: 3.16 µM [activator, partial curve, poor fit]",
COc1cc(SC)ccc1C(=O)NNC(=O)c1cc(C)oc1C,,inactive: -0.447%
O=C(Nc1ccccc1)C1=C[C@@H](c2coc3ccccc3c2=O)C[C@@H](OCc2ccc(CO)cc2)O1,,inactive: -1.59%
CCNS(=O)(=O)c1ccc(C(=O)OCc2cc(=O)oc3cc(OC)ccc23)cc1,"inconclusive: 29.1 µM [activator, single point]",
CCOC(=O)N/N=C\c1cccc(OC)c1OC/C=C/c1ccccc1,"inconclusive: 29.1 µM [activator, partial curve, poor fit]",
CCOC(=O)C1=C(C)NC(C)=C(C(=O)OCC)C1C(=O)OCC(=O)NC1(C#N)CCCCC1,"inconclusive: 20.6 µM [activator, partial curve, poor fit]",
Cc1cccc(N2CCN(S(=O)(=O)c3c(C)[nH]c(C)c3C(=O)N3CCCCC3)CC2)c1C,"inconclusive: 29.1 µM [activator, single point]",
COc1ccc2c(c1)[C@H]1[C@H](CO2)[C@H](c2ccccc2)[C@]2(C)C(=O)Nc3cc(F)c(F)cc3C(=O)N12,"inconclusive: 29.1 µM [activator, single point]",
CCCCn1c2nc3ccccc3nc2c2c(=O)n(CCC(C)C)cnc21,,inactive: 1.58%
O=C(c1cnn2c1NC(c1ccco1)CC2C(F)(F)F)N1CCN(c2cccc(Cl)c2)CC1 (configuration not stated),"inconclusive: 16.4 µM [activator, single point]",
Cc1ccccc1C(=O)NC(=S)NCCN1CCOCC1,,inactive: -4.71%
COc1ccc(OC)c(/C=C/C(=O)N2C(=O)c3cccc(N)c3C2=O)c1,"inconclusive: 16.4 µM [activator, single point]",
C=C1c2nc3ccccc3n2C=C(c2ccc(C)cc2)N1c1ccccc1,"inconclusive: 18.4 µM [activator, single point]",

# Three structures from above, ordered by count of non-hydrogen atoms, low to high:
SMILES,Potency,re-replication activation
COc1ccc(S(=O)(=O)N(C)CC(=O)NCc2ccccn2)cc1,,inactive: 1.26%
CCCCn1c2nc3ccccc3nc2c2c(=O)n(CCC(C)C)cnc21,,inactive: 1.58%
COc1ccc(N2CCN(CCNC(=O)Nc3ccc(C)c(Cl)c3)CC2)cc1,"inconclusive: 18.4 µM [activator, partial curve, poor fit]",
